From PMC4428629, “The Structure of an NDR/LATS Kinase–Mob Complex Reveals a Novel Kinase–Coactivator System and Substrate Docking Mechanism” (PLoS Biology, 2015)

Amino acid sequences for entries named in this document (tags omitted). A change or cut given only in a name is not applied to a line headed by its entry.
UniProt P24276: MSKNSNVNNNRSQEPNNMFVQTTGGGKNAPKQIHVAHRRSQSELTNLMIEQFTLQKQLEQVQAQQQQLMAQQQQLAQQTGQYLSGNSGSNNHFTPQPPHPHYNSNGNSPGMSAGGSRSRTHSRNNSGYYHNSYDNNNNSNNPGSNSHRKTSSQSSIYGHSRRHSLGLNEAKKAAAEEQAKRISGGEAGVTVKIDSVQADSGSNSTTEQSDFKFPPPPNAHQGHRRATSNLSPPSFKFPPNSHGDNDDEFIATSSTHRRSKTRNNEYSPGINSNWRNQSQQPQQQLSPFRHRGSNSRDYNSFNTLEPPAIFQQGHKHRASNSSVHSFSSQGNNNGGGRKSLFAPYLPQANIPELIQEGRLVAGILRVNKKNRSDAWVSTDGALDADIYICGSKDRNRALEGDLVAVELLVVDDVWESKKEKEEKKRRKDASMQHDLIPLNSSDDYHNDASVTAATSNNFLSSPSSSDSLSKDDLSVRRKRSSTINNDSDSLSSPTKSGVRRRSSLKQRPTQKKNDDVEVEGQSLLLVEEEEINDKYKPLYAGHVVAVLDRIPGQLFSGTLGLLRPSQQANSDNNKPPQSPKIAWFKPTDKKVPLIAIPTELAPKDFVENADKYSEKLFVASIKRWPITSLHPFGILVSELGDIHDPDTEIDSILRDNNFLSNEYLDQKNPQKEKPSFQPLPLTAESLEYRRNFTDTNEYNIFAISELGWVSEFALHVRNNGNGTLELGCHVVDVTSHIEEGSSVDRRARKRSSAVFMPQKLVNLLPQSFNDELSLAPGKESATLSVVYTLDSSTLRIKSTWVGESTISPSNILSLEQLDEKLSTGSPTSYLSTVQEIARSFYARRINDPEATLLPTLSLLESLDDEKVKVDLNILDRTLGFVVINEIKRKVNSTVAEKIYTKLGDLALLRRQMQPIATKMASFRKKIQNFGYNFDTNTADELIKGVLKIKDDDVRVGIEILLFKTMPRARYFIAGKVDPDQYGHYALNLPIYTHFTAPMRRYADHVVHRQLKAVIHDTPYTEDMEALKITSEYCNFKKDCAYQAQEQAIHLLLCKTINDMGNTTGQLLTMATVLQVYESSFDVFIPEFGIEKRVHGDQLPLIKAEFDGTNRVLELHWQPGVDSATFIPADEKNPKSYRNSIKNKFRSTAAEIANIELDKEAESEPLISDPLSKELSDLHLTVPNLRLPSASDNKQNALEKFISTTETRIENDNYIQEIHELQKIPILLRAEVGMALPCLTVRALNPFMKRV

T1: pepSSD1, carboxyfluorescein-labelled (S. cerevisiae)
T1 sequence (peptide, carboxyfluorescein on the N-terminus): TTEQSDFKFP

T2: pepAce2, carboxyfluorescein-labelled (S. cerevisiae)
T2 sequence (peptide, carboxyfluorescein on the N-terminus): GSGSIIVTTNSANGGYQFP

T3: Ssd1^208–214, MBP fusion (S. cerevisiae) (UniProt P24276)
T3 sequence: QSDFKFP


What was measured:
[1] = target: T1, pepSSD1, carboxyfluorescein-labelled (S. cerevisiae); experiment: fluorescence polarisation; direct titration: protein titrated into 20 nM carboxyfluorescein-labelled peptide; 20 mM Tris (pH 8.0), 100 mM NaCl, 0.05% Brij35P, 2 mM DTT; quadratic binding equation; both purified
[2] = target: T2, pepAce2, carboxyfluorescein-labelled (S. cerevisiae); experiment: as above
[3] = target: T3, Ssd1^208–214, MBP fusion (S. cerevisiae); experiment: pull-down; MBP fusions on amylose beads incubated with 1 μM purified Cbk1 on ice for 15 min, washed 3× with PBS; GelCode Blue or immunoblot (His or pS570 antibodies); both purified
[4] = target: Cbk1^Δ730–756–Mob2 complex (S. cerevisiae); experiment: fluorescence polarisation; steady-state competition: 20 nM labelled reporter with protein at ~60%–80% complex formation, unlabelled peptide titrated; competition binding equation; both purified

Row | binding [1] | binding [2] | binding [3] | binding [4] | Molecule
1 | binds | – | – | – | Cbk1 kinase domain (limits not told for the experiment) (S. cerevisiae) (domain or fragment)
2 | – | – | no binding (tested: 1 μM) | – | Cbk1(Y687A)–Mob2 complex (S. cerevisiae)
3 | – | – | – | binds | IGYTYSRFDY (phosphothreonine at the fourth residue (T743 of Cbk1)) [HM-P peptide, unlabelled]

Further lines, the molecule ahead of its results:

Row | Molecule | binding [1] | binding [2] | binding [3] | binding [4]
4 | Cbk1(F699A)–Mob2 complex (S. cerevisiae) | binds | binds | binds | –
5 | Cbk1^Δ730–756–Mob2 complex (S. cerevisiae) | binds | – | – | –

These are yes or no findings as the source states them, for the method shown. Binding calls can cover weak binding; strength is not graded here. For some of these results: Tags and fused reporters may be left off the sequences shown.
